# Screening data, single-dose tests

From ChEMBL document CHEMBL3988442, “University of Dundee, Small-Polar-MMV Screening Library” (2021).

T. brucei: 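Whole-parasite assay of Trypanosoma brucei over 72 hours; the read-out is not stated. Concentration: 30 µM. Direction is inferred from retests: higher values go with stronger inhibition. Values scatter widely below zero; nearly all retest evidence comes from the higher of the two concentrations used. About 64,000 compounds were tested under these conditions; 1.5% (about 940) showed 50% or more at least once.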
Toxoplasma: 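Assay of Toxoplasma gondii numbers, read through their beta-galactosidase reporter with a colour substrate. Compounds at 10 µM. The record gives no direction; the compounds picked for IC50 retests had high values, so higher reads as fewer parasites. Of about 67,000 compounds tested this way, about 260 (0.38%) reached 50% or more in at least one test.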
Leishmania in macrophages: 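Cell assay of Leishmania donovani living inside macrophages; the read-out is not stated. Tested at 30 µM. The record gives no direction; compounds that gave an IC50 in retests scored well above the rest, so higher reads as stronger inhibition. Size under these conditions: about 69,000 compounds, about 1,000 of them at 50% or above in at least one test.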

Values are the deposited “Percent Effect”, in %.
The record does not define 0% and 100%; most values in the screen are far below 50% and negative numbers occur (in some assays of this library far below -100).
The compounds are a random part of those screened.
A dash means the value is not listed here; it may have been measured.

- Cc1nn(C)c2nc(N3CCC(C(O)Cc4ccccc4)CC3)sc12 (configuration not stated) : T. brucei: 43.96%; Toxoplasma: 13.07%; Leishmania in macrophages: 58.21%
- O=C(O)C(F)(F)F.O=C(O)C(F)(F)F.[H][C@@]12C[C@H](C(=O)NCC3CC3)N(C)[C@]1([H])CN(Cc1c(C)noc1C)C2 : T. brucei: -70.9%; Toxoplasma: -34.1%; Leishmania in macrophages: -4.016%
- O=C(O)c1cc(-c2cccs2)nc2c(Cl)cnn12 : T. brucei: -7.337%; Toxoplasma: -17.17%; Leishmania in macrophages: 18.31%
- O=c1c(Cc2ccc(Cl)cc2Cl)c(O)ccn1CC1CC1 : Toxoplasma: 5.142%; Leishmania in macrophages: 1.324%
- CCc1nc2c(NCC3COc4cc(OC)ccc4C3)ncnc2o1 (configuration not stated) : T. brucei: 1.488%; Toxoplasma: 2.709%; Leishmania in macrophages: 60.09%
- Cc1cc2n(n1)CC(CNCc1cnn(-c3ccccc3)c1)CN2 (configuration not stated) : T. brucei: -30.89%; Toxoplasma: -24.56%; Leishmania in macrophages: 14.81%
- COc1ccccc1OCCC(=O)N1CCCCC1c1nccs1 (configuration not stated) : T. brucei: -11.64%; Toxoplasma: -17.04%; Leishmania in macrophages: 3.839%
- CNC(=O)CNC(=O)Nc1cc(-c2ccccc2)ns1 : T. brucei: -10.9%; Toxoplasma: -39.54%; Leishmania in macrophages: -7.505%
- CCC(CC)(CCCNC(=O)c1c(C)noc1C)C1OCCO1 : T. brucei: -23.25%; Toxoplasma: 2.626%; Leishmania in macrophages: 11.78%
- Cc1noc(C2CCC3(CCN(C(=O)c4ncccn4)CC3)O2)n1 (configuration not stated) : T. brucei: -9.953%; Toxoplasma: 2.451%; Leishmania in macrophages: -9.391%
- CNC(=O)C1CN(c2ccnc(C)n2)CCN(C2CCOCC2)C1 (configuration not stated) : T. brucei: -14%; Toxoplasma: -1.412%; Leishmania in macrophages: 29.17%
- O=C(c1c2c(N3CCCC3)ncnc2n2ccccc12)N1CCCC1 : T. brucei: 18.3%; Toxoplasma: 3.389%; Leishmania in macrophages: 18.09%
- Cc1cccc(-n2cnc(Cl)c2C(=O)O)c1 : T. brucei: -44.58%; Toxoplasma: 11.58%; Leishmania in macrophages: 42.18%
- Cc1nnc(C(C)N(C)Cc2c(C)nn(-c3ccccc3C)c2C)o1 (configuration not stated) : T. brucei: -40.7%; Toxoplasma: 3.659%; Leishmania in macrophages: 60.72%
- Cc1nc(CN2CCC(C(=O)N(C)C3CCC(C)CC3)CC2)cs1 (configuration not stated) : T. brucei: 18.41%; Toxoplasma: 6.431%; Leishmania in macrophages: -0.493%
- [H][C@]12CC[C@]([H])(CN(Cc3[nH]cnc3C)C1)N(Cc1cccc(C)n1)C2 : Toxoplasma: -9.334%; Leishmania in macrophages: 14.21%
- CCc1ncc2c(n1)CN(CC1CCCCO1)CC2 (configuration not stated) : T. brucei: -9.058%; Toxoplasma: 4.843%; Leishmania in macrophages: 13.2%
- [H][C@]12C[C@@H](CN3CCCC3)N(C)[C@@]1([H])CCN(C(=O)c1cnccn1)C2 : T. brucei: 0.9756%; Toxoplasma: -7.141%; Leishmania in macrophages: 6.596%
- CC(=O)N1CCOCC2(CCN(Cc3ccc(C)s3)CC2)C1.O=C(O)C(F)(F)F : T. brucei: 32.15%; Toxoplasma: 2.244%; Leishmania in macrophages: 12.02%
- Cc1occc1C(=O)N1CCCC1c1ccc(C(=O)N2CCOCC2)s1 (configuration not stated) : T. brucei: -222.8%; Toxoplasma: 1.032%; Leishmania in macrophages: -35.15%
- Cc1ncc(-c2ccnc(N3CCN(C)CC3)n2)c(-c2cccnc2)n1 : T. brucei: -19.68%; Toxoplasma: 1.611%; Leishmania in macrophages: -19.3%
- NC(=O)C1CCCN1Cc1ccccc1NC(=O)Cc1cccs1 (configuration not stated) : T. brucei: -45.24%; Toxoplasma: 17.54%; Leishmania in macrophages: 2.52%
- Cc1noc2nc3c(c(C(=O)/N=c4\[nH]ncs4)c12)CCC3 : T. brucei: -20.52%; Leishmania in macrophages: -11.13%
- CCc1nnsc1C(=O)N(C)Cc1ccco1 : T. brucei: 2.822%; Toxoplasma: 1.175%; Leishmania in macrophages: 24.63%
- O=C(CSc1ccc(F)cc1F)NS(=O)(=O)c1ccc2c(c1)OCCO2 : T. brucei: 1.026%; Toxoplasma: 4.161%; Leishmania in macrophages: 24.49%
- Cc1ncc(CNCCO)c2cc(C(=O)c3ccc(Br)cc3)oc12.Cl : T. brucei: -4.371%; Toxoplasma: 76.96%; Leishmania in macrophages: 52.55%
- CC(C)c1nccn1-c1cccc(C2CCCN(C3CCCC3)C2)n1 (configuration not stated) : T. brucei: 35.96%; Toxoplasma: -1.567%; Leishmania in macrophages: 43.04%
- NC(=O)C1CCN(C(=O)CCn2ccc3ccc(Br)cc32)CC1 : T. brucei: -21.99%; Toxoplasma: -11%; Leishmania in macrophages: 0.1311%
- COc1ccc(N2CCN(C(=O)Cn3nc(C)c(C)c3C)C(C)C2)cc1 (configuration not stated) : T. brucei: -26.92%; Toxoplasma: -10.33%; Leishmania in macrophages: 22.39%
- CC(=O)N[C@H]1CCO[C@@H](c2cccc(NC(=O)c3ccc(=O)[nH]n3)c2)C1 : T. brucei: -6.845%; Toxoplasma: 71.09%; Leishmania in macrophages: -16.42%
- O=C(CO)N1CCC(CCc2ccnc(Nc3cnccn3)c2)CC1 : T. brucei: 12.44%; Toxoplasma: 1.773%; Leishmania in macrophages: 13.01%
- Cc1nn(C)c2nc(N(C)CCN(C)C3CCCC3)sc12 : T. brucei: -34.74%; Toxoplasma: -2.589%; Leishmania in macrophages: -4.796%
- CNC(=O)N1CCC(NC(=O)c2cnn(C)c2)CC1 : T. brucei: -0.2227%; Toxoplasma: -16.55%; Leishmania in macrophages: 27.98%
- CC(NC(=O)NCCCN(C)S(C)(=O)=O)c1cccc(Cl)c1 (configuration not stated) : T. brucei: -18.8%; Toxoplasma: -6.13%; Leishmania in macrophages: -5.78%

Some entries from above, unchanged:

compound	T. brucei	Toxoplasma	Leishmania in macrophages
Cc1nn(C)c2nc(N3CCC(C(O)Cc4ccccc4)CC3)sc12 (configuration not stated)	43.96	13.07	58.21
Cc1noc(C2CCC3(CCN(C(=O)c4ncccn4)CC3)O2)n1 (configuration not stated)	-9.953	2.451	-9.391
Cc1cc2n(n1)CC(CNCc1cnn(-c3ccccc3)c1)CN2 (configuration not stated)	-30.89	-24.56	14.81
O=c1c(Cc2ccc(Cl)cc2Cl)c(O)ccn1CC1CC1	-	5.142	1.324